Results are given in words; binding and its absence hold for the method and conditions named. Binding seen in cells or lysates may run through a third protein. Some results given as binding are weak or reduced against the parent protein; the word gives no strength.
How the values were obtained:
GPR1-WT-smBiT (human) = biological target: T1, GPR1-WT-smBiT (human) (UniProt P46091); assay: split reporter; NanoBiT β-arrestin recruitment; HEK293T cotransfected with receptor-smBiT and LgBiT-β-Arr1 or LgBiT-β-Arr2; stimulated with different concentrations of full-length chemerin or C9; luminescence for 30 min
T1 sequence: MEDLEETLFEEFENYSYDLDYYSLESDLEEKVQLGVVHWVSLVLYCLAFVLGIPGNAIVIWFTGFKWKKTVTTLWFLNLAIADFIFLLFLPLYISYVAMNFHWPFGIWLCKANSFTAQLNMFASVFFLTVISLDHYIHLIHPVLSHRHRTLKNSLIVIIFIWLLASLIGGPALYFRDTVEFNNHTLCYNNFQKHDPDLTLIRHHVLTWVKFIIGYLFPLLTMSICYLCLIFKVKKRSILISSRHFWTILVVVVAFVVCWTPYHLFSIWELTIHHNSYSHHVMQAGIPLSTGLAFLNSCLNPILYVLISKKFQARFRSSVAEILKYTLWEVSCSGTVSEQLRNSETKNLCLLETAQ

Amino acid sequences for entries named in this document (tags omitted).
UniProt P49407: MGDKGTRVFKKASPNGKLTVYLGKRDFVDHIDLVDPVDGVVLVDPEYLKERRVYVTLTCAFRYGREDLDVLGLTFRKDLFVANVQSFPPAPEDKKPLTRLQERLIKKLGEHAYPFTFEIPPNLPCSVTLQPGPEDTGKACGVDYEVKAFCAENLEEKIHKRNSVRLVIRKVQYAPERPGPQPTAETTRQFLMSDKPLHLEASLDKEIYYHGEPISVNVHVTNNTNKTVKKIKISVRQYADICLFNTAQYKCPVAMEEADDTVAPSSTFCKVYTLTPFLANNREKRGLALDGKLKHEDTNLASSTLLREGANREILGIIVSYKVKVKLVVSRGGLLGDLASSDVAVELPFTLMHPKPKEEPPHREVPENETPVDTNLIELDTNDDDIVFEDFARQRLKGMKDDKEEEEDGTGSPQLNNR
UniProt P32121: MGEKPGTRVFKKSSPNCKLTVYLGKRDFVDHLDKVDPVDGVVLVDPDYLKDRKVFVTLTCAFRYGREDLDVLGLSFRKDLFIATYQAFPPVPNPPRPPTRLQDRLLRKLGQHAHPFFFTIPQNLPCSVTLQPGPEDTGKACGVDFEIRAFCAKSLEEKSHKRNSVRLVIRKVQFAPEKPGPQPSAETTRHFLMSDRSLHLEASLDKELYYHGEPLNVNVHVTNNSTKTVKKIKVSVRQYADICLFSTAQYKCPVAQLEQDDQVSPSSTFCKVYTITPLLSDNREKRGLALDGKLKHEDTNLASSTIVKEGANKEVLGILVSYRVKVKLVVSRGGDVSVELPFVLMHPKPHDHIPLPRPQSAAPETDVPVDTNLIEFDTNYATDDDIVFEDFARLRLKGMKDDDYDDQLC

CMKLR1-WT-smBiT (human) = biological target: T2, CMKLR1-WT-smBiT (human) (UniProt Q99788); assay: as above
T2 sequence: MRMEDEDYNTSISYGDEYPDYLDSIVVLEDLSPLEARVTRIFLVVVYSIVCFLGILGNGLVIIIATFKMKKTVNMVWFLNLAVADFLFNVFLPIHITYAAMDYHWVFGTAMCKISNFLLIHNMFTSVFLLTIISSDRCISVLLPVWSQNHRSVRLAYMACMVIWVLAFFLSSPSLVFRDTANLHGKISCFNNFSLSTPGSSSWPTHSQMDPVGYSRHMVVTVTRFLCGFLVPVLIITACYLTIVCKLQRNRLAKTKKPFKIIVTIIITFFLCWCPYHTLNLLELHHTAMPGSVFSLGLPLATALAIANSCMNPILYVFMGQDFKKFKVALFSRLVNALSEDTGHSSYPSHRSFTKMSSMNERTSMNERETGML

| binding (GPR1-WT-smBiT (human)) | binding (CMKLR1-WT-smBiT (human)) | Substance |
| --- | --- | --- |
| binds | binds | LgBiT-β-Arr1 (from UniProt P49407 1-418) |
| – | binds | LgBiT-β-Arr2 (from UniProt P32121 1-409) |
